Reference: publication PMC11066007, “CORVET-specific subunit levels determine the balance between HOPS/CORVET endosomal tethering complexes” (Scientific Reports, 2024)
No constants are given. Whether binding was seen depends on the method and setting. For some assays here: Binding seen in cells or lysates may run through a third protein. Some results given as binding are weak or reduced against the parent protein; the word gives no strength. Sequences can lack the tags named with a protein. Blank lines part the entries; values can stand above or below the binder they belong to.

Columns and labels:
[1] = target: T1, VPS8 (yeast two-hybrid fusion) (human) (UniProt Q8N3P4); assay: two-hybrid; yeast AH109 co-transformed with pGADT7 and pGBKT7 constructs; selection on SD-WL, interaction read by growth on SD-WL without adenine or histidine; 48 h at 30 °C
T1 sequence: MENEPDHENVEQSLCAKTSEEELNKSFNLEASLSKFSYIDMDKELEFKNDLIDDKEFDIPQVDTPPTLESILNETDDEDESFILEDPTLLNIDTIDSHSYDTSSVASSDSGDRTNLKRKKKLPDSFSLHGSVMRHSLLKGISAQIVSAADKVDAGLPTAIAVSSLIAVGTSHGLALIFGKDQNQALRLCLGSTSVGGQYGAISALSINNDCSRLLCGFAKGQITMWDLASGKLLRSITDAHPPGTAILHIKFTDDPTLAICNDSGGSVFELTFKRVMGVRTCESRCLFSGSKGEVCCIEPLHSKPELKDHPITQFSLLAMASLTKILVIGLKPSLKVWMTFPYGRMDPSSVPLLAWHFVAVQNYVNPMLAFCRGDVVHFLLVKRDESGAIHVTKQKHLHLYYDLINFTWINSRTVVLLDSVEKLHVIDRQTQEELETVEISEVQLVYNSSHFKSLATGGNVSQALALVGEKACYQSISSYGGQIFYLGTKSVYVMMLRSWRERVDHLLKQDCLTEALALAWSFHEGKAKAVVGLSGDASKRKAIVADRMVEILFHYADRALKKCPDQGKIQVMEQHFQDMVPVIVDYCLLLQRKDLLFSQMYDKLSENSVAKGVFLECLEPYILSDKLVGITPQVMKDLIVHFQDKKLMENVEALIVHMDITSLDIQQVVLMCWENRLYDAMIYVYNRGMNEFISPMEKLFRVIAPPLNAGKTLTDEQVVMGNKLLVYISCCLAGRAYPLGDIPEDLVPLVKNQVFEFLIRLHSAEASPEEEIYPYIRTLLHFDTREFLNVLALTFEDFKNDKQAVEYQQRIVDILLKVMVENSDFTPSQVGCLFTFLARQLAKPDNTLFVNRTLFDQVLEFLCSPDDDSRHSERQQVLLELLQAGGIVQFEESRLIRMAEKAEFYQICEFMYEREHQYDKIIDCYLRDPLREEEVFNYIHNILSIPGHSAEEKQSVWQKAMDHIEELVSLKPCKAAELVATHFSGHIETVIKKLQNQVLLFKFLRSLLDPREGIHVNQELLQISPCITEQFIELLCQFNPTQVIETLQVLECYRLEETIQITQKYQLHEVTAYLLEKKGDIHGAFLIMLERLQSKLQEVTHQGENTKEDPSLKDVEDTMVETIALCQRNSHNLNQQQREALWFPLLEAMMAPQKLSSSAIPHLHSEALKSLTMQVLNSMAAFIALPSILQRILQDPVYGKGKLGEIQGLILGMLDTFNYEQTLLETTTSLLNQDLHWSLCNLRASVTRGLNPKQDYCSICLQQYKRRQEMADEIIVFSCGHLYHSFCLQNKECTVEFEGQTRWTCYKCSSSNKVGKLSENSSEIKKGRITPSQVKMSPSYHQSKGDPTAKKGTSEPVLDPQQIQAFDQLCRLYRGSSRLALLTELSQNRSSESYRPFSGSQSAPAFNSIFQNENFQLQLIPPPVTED

[2] = target: T2, VPS41 (yeast two-hybrid fusion) (human) (UniProt P49754); assay: as above
T2 sequence: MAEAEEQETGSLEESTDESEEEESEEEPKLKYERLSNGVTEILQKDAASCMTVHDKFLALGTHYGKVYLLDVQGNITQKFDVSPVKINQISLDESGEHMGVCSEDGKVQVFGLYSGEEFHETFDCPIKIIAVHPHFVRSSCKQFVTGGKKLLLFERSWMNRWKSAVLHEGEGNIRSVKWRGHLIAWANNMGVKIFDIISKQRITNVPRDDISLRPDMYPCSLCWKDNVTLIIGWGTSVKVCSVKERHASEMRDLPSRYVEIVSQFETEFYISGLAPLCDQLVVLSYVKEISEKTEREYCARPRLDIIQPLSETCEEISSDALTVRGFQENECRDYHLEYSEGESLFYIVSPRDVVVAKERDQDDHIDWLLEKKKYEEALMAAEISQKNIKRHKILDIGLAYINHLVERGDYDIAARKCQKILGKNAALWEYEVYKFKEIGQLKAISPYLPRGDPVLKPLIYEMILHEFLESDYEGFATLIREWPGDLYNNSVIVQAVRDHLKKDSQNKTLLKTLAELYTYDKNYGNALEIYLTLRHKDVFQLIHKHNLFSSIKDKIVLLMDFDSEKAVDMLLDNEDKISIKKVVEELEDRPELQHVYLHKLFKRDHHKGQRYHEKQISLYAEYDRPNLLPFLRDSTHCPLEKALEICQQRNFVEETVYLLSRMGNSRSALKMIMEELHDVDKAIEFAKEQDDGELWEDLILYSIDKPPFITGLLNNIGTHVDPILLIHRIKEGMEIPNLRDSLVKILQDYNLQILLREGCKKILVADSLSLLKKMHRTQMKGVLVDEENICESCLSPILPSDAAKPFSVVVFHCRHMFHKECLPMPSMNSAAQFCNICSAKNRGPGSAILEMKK

[3] = target: T3, VPS11 (human (endogenous in HEK293)) (UniProt Q9H270); assay: co-IP; anti-FLAG beads on total lysates of HEK293 cells stably transfected with a FLAG-tagged specific subunit, with or without transient overexpression of the counterpart subunit (control: pCMV); endogenous VPS11 and VPS18 detected by western blot, densitometry with ImageJ; lysis buffer 50 mM TRIS-HCl pH 7.5, 150 mM NaCl, 1% Triton X-100, 5 mM EDTA; 1.5 h at 4 °C
T3 sequence: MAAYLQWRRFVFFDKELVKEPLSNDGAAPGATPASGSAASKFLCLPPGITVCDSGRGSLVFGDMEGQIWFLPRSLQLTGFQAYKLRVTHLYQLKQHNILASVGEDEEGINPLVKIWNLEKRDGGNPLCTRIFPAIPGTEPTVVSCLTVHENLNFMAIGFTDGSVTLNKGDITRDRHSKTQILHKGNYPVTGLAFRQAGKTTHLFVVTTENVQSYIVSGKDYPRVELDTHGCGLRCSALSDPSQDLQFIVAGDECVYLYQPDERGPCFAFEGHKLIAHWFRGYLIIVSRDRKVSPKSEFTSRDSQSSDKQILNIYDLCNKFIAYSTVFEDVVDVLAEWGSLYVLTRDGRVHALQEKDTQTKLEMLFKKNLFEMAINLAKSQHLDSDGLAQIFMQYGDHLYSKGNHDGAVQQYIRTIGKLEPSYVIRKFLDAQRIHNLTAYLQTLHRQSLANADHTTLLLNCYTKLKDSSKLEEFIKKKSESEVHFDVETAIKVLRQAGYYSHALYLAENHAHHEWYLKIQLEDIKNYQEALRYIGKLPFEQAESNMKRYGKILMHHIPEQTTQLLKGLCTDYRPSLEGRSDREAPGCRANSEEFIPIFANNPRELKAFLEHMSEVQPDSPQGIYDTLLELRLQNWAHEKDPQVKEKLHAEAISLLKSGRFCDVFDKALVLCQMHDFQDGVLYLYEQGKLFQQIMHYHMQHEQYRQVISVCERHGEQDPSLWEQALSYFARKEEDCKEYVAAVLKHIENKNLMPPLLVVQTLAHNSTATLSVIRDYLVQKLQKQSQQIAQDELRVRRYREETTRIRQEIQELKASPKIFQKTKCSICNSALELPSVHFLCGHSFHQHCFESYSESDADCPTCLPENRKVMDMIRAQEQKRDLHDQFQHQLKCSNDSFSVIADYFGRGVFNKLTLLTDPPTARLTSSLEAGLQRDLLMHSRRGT

[4] = target: T4, VPS18 (human (endogenous in HEK293)) (UniProt Q9P253); assay: as above
T4 sequence: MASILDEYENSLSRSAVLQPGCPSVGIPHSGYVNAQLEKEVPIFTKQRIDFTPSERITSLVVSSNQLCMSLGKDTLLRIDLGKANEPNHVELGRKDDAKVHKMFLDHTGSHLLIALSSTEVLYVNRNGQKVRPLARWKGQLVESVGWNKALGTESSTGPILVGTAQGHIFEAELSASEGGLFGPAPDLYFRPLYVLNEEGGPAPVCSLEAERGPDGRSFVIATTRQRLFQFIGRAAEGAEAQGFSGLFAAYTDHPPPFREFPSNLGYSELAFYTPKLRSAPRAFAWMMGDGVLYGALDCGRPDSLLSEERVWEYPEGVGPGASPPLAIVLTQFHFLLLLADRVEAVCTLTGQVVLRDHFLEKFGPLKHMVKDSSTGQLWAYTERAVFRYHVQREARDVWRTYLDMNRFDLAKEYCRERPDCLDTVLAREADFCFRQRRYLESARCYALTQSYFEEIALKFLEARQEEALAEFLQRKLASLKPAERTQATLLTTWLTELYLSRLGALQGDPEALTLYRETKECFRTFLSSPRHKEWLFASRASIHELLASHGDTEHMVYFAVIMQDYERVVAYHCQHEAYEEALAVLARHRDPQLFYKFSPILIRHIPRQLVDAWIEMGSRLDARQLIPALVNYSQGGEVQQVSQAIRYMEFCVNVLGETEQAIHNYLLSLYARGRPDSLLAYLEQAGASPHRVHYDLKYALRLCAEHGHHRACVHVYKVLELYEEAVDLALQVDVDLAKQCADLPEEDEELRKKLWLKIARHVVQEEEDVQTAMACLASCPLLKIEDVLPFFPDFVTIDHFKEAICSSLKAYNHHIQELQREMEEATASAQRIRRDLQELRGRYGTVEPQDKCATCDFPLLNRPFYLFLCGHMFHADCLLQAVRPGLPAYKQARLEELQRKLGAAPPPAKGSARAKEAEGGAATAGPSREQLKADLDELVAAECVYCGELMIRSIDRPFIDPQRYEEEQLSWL

binding [1]: binds | binding [2]: binds
B1: VPS18 aa 482-854 (yeast two-hybrid fusion) (domain or fragment, UniProt Q9P253 482-854)
chain: PAERTQATLLTTWLTELYLSRLGALQGDPEALTLYRETKECFRTFLSSPRHKEWLFASRASIHELLASHGDTEHMVYFAVIMQDYERVVAYHCQHEAYEEALAVLARHRDPQLFYKFSPILIRHIPRQLVDAWIEMGSRLDARQLIPALVNYSQGGEVQQVSQAIRYMEFCVNVLGETEQAIHNYLLSLYARGRPDSLLAYLEQAGASPHRVHYDLKYALRLCAEHGHHRACVHVYKVLELYEEAVDLALQVDVDLAKQCADLPEEDEELRKKLWLKIARHVVQEEEDVQTAMACLASCPLLKIEDVLPFFPDFVTIDHFKEAICSSLKAYNHHIQELQREMEEATASAQRIRRDLQELRGRYGTVEPQDKCA

binding [3]: binds | binding [4]: binds
B2: Tgfbrap1-HA (protein, UniProt Q8WUH2 1-860)
chain: MMSIKAFTLVSAVERELLMGDKERVNIECVECCGRDLYVGTNDCFVYHFLLEERPVPAGPATFTATKQLQRHLGFKKPVNELRAASALNRLLVLCDNSISLVNMLNLEPVPSGARIKGAATFALNENPVSGDPFCVEVCIISVKRRTIQMFLVYEDRVQIVKEVSTAEQPLAVAVDGHFLCLALTTQYIIHNYSTGVSQDLFPYCSEERPPIVKRIGRQEFLLAGPGGLGMFATVAGISQRAPVHWSENVIGAAVSFPYVIALDDEFITVHSMLDQQQKQTLPFKEGHILQDFEGRVIVATSKGVYILVPLPLEKQIQDLLASRRVEEALVLAKGARRNIPKEKFQVMYRRILQQAGFIQFAQLQFLEAKELFRSGQLDVRELISLYPFLLPTSSSFTRSHPPLHEYADLNQLTQGDQEKMAKCKRFLMSYLNEVRSTEVANGYKEDIDTALLKLYAEADHDSLLDLLVTENFCLLTDSAAWLEKHKKYFALGLLYHYNNQDAAAVQLWVNIVNGDVQDSTRSDLYEYIVDFLTYCLDEELVWAYADWVLQKSEEVGVQVFTKRPLDEQQKNSFNPDDIINCLKKYPKALVKYLEHLVIDKRLQKEEYHTHLAVLYLEEVLLQRASASGKGAEATETQAKLRRLLQKSDLYRVHFLLERLQGAGLPMESAILHGKLGEHEKALHILVHELQDFAAAEDYCLWCSEGRDPPHRQQLFHTLLAIYLHAGPTAHELAVAAVDLLNRHATEFDAAQVLQMLPDTWSVQLLCPFLMGAMRDSIHARRTMQVALGLARSENLIYTYDKMKLKGSSIQLSDKKLCQICQNPFCEPVFVRYPNGGLVHTHCAASRHTNPSSSSPGTRT

binding [1]: binds
B3: VPS18 aa 855-973 (yeast two-hybrid fusion) (domain or fragment, UniProt Q9P253 855-973)
chain: TCDFPLLNRPFYLFLCGHMFHADCLLQAVRPGLPAYKQARLEELQRKLGAAPPPAKGSARAKEAEGGAATAGPSREQLKADLDELVAAECVYCGELMIRSIDRPFIDPQRYEEEQLSWL
